Data taken from publication PMC8579450.
These are yes or no findings as the source states them, for the method shown. In cells and extracts the contact can be indirect. Some binding calls cover weakened binding; strength is not graded here.

Target: T1, Lysine Methyltransferase 5A (KMT5A) (human (endogenous in HUVECs)) (UniProt Q9NQR1)
T1 sequence: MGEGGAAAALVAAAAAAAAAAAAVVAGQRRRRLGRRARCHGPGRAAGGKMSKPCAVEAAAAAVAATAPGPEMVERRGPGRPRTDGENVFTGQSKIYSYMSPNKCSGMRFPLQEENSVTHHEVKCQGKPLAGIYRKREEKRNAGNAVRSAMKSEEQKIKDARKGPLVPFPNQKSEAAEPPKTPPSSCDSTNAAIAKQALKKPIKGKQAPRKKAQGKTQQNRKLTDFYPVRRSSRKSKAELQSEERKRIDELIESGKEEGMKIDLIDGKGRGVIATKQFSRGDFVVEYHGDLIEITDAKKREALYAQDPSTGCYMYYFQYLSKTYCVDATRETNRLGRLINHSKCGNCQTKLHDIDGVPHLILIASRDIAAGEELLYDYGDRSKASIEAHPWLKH
Assay: co-IP; endogenous immunoprecipitation from HUVEC whole-cell lysates with anti-KMT5A antibody, anti-RFX1 antibody or IgG, protein A/G Dynabeads, 4 °C overnight; western blot

B1: regulatory factor X1 (RFX1) (protein, UniProt P22670 1-979)
chain: MATQAYTELQAAPPPSQPPQAPPQAQPQPPPPPPPAAPQPPQPPTAAATPQPQYVTELQSPQPQAQPPGGQKQYVTELPAVPAPSQPTGAPTPSPAPQQYIVVTVSEGAMRASETVSEASPGSTASQTGVPTQVVQQVQGTQQRLLVQTSVQAKPGHVSPLQLTNIQVPQQALPTQRLVVQSAAPGSKGGQVSLTVHGTQQVHSPPEQSPVQANSSSSKTAGAPTGTVPQQLQVHGVQQSVPVTQERSVVQATPQAPKPGPVQPLTVQGLQPVHVAQEVQQLQQVPVPHVYSSQVQYVEGGDASYTASAIRSSTYSYPETPLYTQTASTSYYEAAGTATQVSTPATSQAVASSGSMPMYVSGSQVVASSTSTGAGASNSSGGGGSGGGGGGGGGGGGGGSGSTGGGGSGAGTYVIQGGYMLGSASQSYSHTTRASPATVQWLLDNYETAEGVSLPRSTLYCHYLLHCQEQKLEPVNAASFGKLIRSVFMGLRTRRLGTRGNSKYHYYGLRIKASSPLLRLMEDQQHMAMRGQPFSQKQRLKPIQKMEGMTNGVAVGQQPSTGLSDISAQVQQYQQFLDASRSLPDFTELDLQGKVLPEGVGPGDIKAFQVLYREHCEAIVDVMVNLQFTLVETLWKTFWRYNLSQPSEAPPLAVHDEAEKRLPKAILVLLSKFEPVLQWTKHCDNVLYQGLVEILIPDVLRPIPSALTQAIRNFAKSLESWLTHAMVNIPEEMLRVKVAAAGAFAQTLRRYTSLNHLAQAARAVLQNTAQINQMLSDLNRVDFANVQEQASWVCRCEDRVVQRLEQDFKVTLQQQNSLEQWAAWLDGVVSQVLKPYQGSAGFPKAAKLFLLKWSFYSSMVIRDLTLRSAASFGSFHLIRLLYDEYMYYLIEHRVAQAKGETPIAVMGEFANLATSLNPLDPDKDEEEEEEEESEDELPQDISLAAGGESPALGPETLEPPAKLARTDARGLFVQALPSS
**Q.** With B1 as the binder, how does the binding read?
**A.** The binding was “binds”.
